Measured values taken from PubChem BioAssay AID504444 (National Center for Advancing Translational Sciences (NCATS), 2011).
The campaign covered roughly 360,000 compounds. About 7,500 (2.1%) were called active. The inconclusive results got no clear call from the source; some entries with a clear call stand among them for comparison. Calls follow the shape of the dose curve; as a rule, active = well fitted inhibition curve with a large enough effect; inconclusive = small, poorly fitted or top-dose-only effect, or effect the other way; inactive = flat fitted curve, though single readings scatter. Potencies beside an inconclusive call are fits to weak or partial responses and may not hold up.

Assay: Nrf2 qHTS screen for inhibitors; also: nearly all actives have a fitted effect of over 60% in size
Settings: A549 ARE-Fluc reporter, luciferase luminescence, 18-24 h; activity change, negative = inhibition: at 46 µM (top of the series)
In short: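 Reporter: ARE-Fluc in A549. Exposure: 18-24 h, 37 °C, 5% CO2, 5% FBS OPTI-MEM. Readouts: fluorescent cytotoxicity (CellTiter-Fluor), then luminescent Nrf2 signal after BugLite.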
% is scaled to controls: 0 for no effect and ±100 for the full control effect; potency is read from the fitted curve at half-maximal effect.

SMILES | Potency | activity change, negative = inhibition
CC(=C\c1ccccc1)/C=C1/SC(=O)N(CCCC(=O)Nc2ccc(C(=O)O)cc2)C1=O | inconclusive: 23.1 µM [falling, single point] | 
S=c1[nH]nc(-c2ccccc2Cl)n1Cc1ccccc1 | inconclusive: 0.82 µM [activator, full curve] | 
c1ccc(-n2nnnc2SCc2ccccn2)cc1 |  | inactive: 11.6%
Cc1[nH]c2ccc(C(=O)Nc3ccc(F)cc3)cc2c1C | inconclusive: 3.66 µM [activator, single point] | 
COCCCN(C(C)=O)c1nc(-c2ccccc2)cs1 | inconclusive: 2.31 µM [activator, full curve] | 
Cc1ccccc1CN1C(=O)c2ccccc2S(=O)c2ccc(C(=O)NCc3ccco3)cc21 (stereo not drawn) |  | inactive: 9.14%
CCOc1ncccc1C(=O)Nc1ccc(S(=O)(=O)Nc2nccs2)cc1 | inconclusive: 29.1 µM [falling, single point] | 
C/C(=C\c1ccc(N)cc1)c1nc2ccccc2[nH]1 | inconclusive: 9.2 µM [activator, partial curve] | 
C=CCn1c(SCC(=O)NC(=O)NC)nnc1C1CCCCC1 |  | inactive: -8.92%
O=C(CSc1nnc2scc(-c3ccccc3)n12)Nc1nsc(-c2ccc(Cl)cc2)n1 | inconclusive: 1.84 µM [falling, full curve, poor fit] | 
COc1ccc(NC(=O)c2oc3ccccc3c2NC(=O)c2ccco2)cc1 | active: 1.64 µM | 
Cc1ccc(NC(=O)CSc2nc3c(c(=O)[nH]2)CCC3)cc1Cl | inconclusive: 29.1 µM [falling, single point] | 
CCS(=O)(=O)N1CCC2(CC1)OC(=O)C(C)=C2C(=O)NCc1cccc(Cl)c1 | inconclusive: 23.1 µM [activator, single point] | 
COc1ccc2[nH]c(C(=O)N3CCc4ccccc4C3)c(C)c2c1 | active: 18.4 µM | 
CCOc1ccc(Nc2c3ccccc3nc3ccccc23)cc1 |  | inactive: -28.6%
CCCN(CC(=O)Nc1ccccc1C)C(=O)C1CCN(S(=O)(=O)c2ccccc2C(F)(F)F)CC1 | inconclusive: 7.31 µM [activator, partial curve, poor fit] | 
Cc1cccc(NC(=O)N2C3CCCC2CC(NC(=O)C2CC2)C3)c1 (stereo not drawn) | inconclusive: 29.1 µM [falling, single point] | 
Cc1ccc(NS(=O)(=O)c2ccc3c(c2)CCO3)cc1C | inconclusive: 16.4 µM [falling, single point] | 
Cc1ccc(OC(C)C(=O)Nc2ccc(C)c(S(=O)(=O)Nc3ccc(C)cc3C)c2)cc1 (stereo not drawn) | inconclusive: 18.4 µM [falling, partial curve, poor fit] | 
Cc1ccc(NC(=S)NCc2ccccn2)cc1 | inconclusive: 18.4 µM [activator, single point] | 
O=C(CCC1CCCN(C(=O)c2ccccc2Cl)C1)N1CCN(c2ccccn2)CC1 (stereo not drawn) | inconclusive: 29.1 µM [falling, single point] | 
Clc1ccc(Nc2ncnc3c2nnn3Cc2ccccc2)cc1 | inconclusive: 32.6 µM [activator, single point] | 

SMILES | Potency | activity change, negative = inhibition
N#Cc1c([N+](=O)[O-])cc([N+](=O)[O-])cc1S(=O)(=O)Cc1ccccc1 | inconclusive: 29.1 µM [falling, single point] | 
CN1CCN(C(=O)CNc2ccc(C(F)(F)F)cc2[N+](=O)[O-])CC1 | inconclusive: 0.0046 µM [falling, full curve, poor fit] | 
Cc1cccc(N2CCN(S(=O)(=O)c3ccc4c(c3)C(C)(C)C(=O)N4C)CC2)c1C | inconclusive: 29.1 µM [falling, single point] | 
CCOC(=O)C1=C(N)Oc2ccc3ccccc3c2C1c1cccnc1 (stereo not drawn) | inconclusive: 35.5 µM [falling, single point] | 
CC1=C(/C=C/C(C)=C/C=C/C(C)=C/C(=O)O)C(C)(C)CCC1 | inconclusive: 3.26 µM [falling, partial curve, poor fit] | 
Cc1ccc(S(=O)(=O)N2CCN(C(=O)COC(=O)CCOc3ccccc3)CC2)c(C)c1 |  | inactive: -3.03%
O=C(CCn1nnc2ccccc21)N1CCN(c2ccccc2)CC1 | inconclusive: 20.6 µM [activator, single point] | 
NC(=O)C1CCCN(CCc2ccccc2)C1 (stereo not drawn) | inconclusive: 0.0731 µM [falling, full curve, poor fit] | 
Cc1ccc(C(=O)Nc2cccnc2)cc1NC(=O)c1ccco1 | inconclusive: 20.6 µM [activator, single point] | 
Cc1c(C(=O)Nc2cc(S(=O)(=O)N3CCOCC3)ccc2N2CCOCC2)oc2ccccc12 | inconclusive: 25.9 µM [falling, single point] | 
COc1ccc(NC(=O)CCCSc2nc(-c3ccco3)cc(C(F)(F)F)n2)cc1 | inconclusive: 16.4 µM [falling, single point] | 
O=S(=O)(c1ccccc1)N1CCN(C(=S)NCc2ccccc2)CC1 |  | inactive: -14%
Cc1csc(NC(=O)CCCc2cccs2)n1 | inconclusive: 9.2 µM [activator, partial curve, poor fit] | 
O=C(Cc1ccccc1)Nc1cccc(-c2nc3ncccc3o2)c1 | inconclusive: 0.82 µM [falling, full curve] | 
COC(=O)c1ccc(/C=C(\C#N)c2nc3ccccc3s2)cc1 |  | inactive: 18%
CN(C)CCCNc1cc(-c2ccccc2)nc2cc(-c3cccc(F)c3)nn12 | inconclusive: 4.11 µM [falling, partial curve, poor fit] | 
CCC(=O)c1ccc(OCC(=O)NC2CCN(Cc3ccccc3)CC2)cc1 |  | inactive: 4.7%
CC(=O)N1CCN(c2ccccc2NC(=S)NC(=O)c2cc3ccccc3o2)CC1 | inconclusive: 23.1 µM [falling, single point] | 
CCCCC(=O)NC(c1ccc(Cl)cc1Cl)c1ccc2cccnc2c1O (stereo not drawn) | inconclusive: 8.2 µM [falling, partial curve, poor fit] | 
CCOc1ccc(OCC)c(S(=O)(=O)NCc2cccnc2)c1 | inconclusive: 8.2 µM [activator, partial curve] | 

A section from the list above, for reference:
SMILES | Potency | activity change, negative = inhibition
N#Cc1c([N+](=O)[O-])cc([N+](=O)[O-])cc1S(=O)(=O)Cc1ccccc1 | inconclusive: 29.1 µM [falling, single point] | 
CN1CCN(C(=O)CNc2ccc(C(F)(F)F)cc2[N+](=O)[O-])CC1 | inconclusive: 0.0046 µM [falling, full curve, poor fit] | 
Cc1cccc(N2CCN(S(=O)(=O)c3ccc4c(c3)C(C)(C)C(=O)N4C)CC2)c1C | inconclusive: 29.1 µM [falling, single point] | 
